Results from publication PMC7403338.

Sequences of proteins named here, by UniProt entry; tags and fusion partners are left off. A change or cut given only in a name is not applied to a line headed by its entry.
UniProt A4IB95: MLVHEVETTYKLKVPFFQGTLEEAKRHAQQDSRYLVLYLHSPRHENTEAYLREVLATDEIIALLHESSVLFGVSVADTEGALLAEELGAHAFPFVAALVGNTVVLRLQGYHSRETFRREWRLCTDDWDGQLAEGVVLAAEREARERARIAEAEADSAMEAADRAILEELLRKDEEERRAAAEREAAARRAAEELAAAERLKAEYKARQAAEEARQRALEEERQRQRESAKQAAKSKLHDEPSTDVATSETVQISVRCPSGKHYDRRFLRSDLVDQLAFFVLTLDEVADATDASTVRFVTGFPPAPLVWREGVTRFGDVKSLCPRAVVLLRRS
UniProt A4HZR0: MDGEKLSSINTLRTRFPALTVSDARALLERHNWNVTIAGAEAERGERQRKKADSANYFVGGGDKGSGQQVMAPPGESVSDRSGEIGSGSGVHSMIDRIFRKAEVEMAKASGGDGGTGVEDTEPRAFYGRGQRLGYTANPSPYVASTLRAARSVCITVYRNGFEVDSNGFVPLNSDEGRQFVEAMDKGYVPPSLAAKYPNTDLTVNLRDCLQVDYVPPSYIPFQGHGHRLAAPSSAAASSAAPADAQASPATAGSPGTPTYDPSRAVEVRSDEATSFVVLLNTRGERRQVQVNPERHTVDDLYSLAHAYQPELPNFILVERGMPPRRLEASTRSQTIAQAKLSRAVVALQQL
UniProt A4ICA6: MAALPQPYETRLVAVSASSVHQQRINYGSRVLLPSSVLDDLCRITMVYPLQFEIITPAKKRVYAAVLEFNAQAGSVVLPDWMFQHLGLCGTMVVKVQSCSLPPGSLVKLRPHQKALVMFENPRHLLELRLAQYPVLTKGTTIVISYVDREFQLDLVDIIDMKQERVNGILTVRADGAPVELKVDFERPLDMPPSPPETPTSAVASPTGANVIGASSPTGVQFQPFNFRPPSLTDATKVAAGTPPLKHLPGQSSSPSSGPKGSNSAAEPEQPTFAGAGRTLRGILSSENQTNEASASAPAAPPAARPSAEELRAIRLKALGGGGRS
UniProt Q9N9V5: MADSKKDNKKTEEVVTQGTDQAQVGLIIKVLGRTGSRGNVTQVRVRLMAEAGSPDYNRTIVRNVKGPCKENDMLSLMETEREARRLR
UniProt A4I4A3: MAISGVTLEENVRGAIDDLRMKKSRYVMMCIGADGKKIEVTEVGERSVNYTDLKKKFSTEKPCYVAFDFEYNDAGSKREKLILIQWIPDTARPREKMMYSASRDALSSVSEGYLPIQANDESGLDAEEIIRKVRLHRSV
UniProt A4I1S9: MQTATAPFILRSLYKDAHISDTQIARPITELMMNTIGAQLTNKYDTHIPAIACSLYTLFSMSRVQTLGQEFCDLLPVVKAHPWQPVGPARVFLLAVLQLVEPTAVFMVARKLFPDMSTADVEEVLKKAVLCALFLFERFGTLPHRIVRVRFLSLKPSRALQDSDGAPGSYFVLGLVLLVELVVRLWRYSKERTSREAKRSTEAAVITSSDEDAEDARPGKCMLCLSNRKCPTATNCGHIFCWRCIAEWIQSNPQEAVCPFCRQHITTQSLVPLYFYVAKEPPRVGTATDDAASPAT
UniProt A4I9W4: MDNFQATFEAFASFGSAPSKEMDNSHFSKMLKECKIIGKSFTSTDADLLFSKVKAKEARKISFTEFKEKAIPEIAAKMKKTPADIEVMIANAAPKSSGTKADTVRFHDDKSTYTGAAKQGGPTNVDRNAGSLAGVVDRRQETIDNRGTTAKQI
UniProt A4HSN6: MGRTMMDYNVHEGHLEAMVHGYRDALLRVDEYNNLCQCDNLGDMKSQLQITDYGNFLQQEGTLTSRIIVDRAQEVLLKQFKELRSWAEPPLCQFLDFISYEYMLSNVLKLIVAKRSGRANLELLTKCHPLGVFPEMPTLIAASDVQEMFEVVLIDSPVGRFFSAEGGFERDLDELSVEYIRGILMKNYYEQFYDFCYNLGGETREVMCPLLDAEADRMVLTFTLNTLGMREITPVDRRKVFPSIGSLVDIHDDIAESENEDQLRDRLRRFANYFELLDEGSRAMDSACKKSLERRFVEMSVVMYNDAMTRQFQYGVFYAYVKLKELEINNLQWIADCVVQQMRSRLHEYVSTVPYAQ
UniProt A4IAK7: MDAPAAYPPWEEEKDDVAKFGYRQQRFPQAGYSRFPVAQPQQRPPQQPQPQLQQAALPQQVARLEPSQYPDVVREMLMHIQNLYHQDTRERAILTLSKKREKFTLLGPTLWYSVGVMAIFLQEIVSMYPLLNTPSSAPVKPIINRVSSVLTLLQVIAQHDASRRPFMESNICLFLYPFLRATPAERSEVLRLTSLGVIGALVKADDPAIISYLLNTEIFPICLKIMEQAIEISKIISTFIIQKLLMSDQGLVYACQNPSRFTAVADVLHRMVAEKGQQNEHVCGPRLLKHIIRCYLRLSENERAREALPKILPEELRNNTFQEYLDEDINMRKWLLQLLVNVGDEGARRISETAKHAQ
UniProt A4IC22: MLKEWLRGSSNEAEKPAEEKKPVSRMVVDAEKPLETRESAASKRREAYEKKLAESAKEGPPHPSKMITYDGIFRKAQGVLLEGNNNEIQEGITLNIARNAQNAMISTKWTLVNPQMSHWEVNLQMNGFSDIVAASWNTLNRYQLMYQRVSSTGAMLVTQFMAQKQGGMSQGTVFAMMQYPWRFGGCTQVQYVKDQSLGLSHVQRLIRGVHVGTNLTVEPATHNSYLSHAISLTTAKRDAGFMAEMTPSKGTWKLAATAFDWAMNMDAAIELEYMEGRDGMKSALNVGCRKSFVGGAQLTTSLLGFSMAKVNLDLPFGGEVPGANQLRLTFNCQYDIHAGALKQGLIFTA
UniProt A4HYE3: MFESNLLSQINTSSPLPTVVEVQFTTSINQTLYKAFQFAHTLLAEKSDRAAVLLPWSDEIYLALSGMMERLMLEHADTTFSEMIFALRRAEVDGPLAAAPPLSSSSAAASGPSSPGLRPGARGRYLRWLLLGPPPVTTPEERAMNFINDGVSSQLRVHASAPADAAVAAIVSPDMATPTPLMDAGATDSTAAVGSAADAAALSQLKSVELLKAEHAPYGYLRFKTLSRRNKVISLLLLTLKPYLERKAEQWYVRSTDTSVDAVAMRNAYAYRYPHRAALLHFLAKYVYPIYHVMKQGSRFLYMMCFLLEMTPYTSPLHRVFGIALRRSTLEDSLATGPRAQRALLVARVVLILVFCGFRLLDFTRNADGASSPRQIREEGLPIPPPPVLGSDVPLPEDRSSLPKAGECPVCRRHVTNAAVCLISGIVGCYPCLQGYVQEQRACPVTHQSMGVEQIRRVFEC
UniProt A4IBQ8: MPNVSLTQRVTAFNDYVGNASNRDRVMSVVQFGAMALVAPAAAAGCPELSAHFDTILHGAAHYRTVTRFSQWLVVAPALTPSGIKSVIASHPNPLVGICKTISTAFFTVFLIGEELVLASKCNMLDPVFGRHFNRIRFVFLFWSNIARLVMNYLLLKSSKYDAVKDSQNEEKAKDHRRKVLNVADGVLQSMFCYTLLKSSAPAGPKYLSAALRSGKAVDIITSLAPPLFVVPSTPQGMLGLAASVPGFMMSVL
UniProt A4I3K7: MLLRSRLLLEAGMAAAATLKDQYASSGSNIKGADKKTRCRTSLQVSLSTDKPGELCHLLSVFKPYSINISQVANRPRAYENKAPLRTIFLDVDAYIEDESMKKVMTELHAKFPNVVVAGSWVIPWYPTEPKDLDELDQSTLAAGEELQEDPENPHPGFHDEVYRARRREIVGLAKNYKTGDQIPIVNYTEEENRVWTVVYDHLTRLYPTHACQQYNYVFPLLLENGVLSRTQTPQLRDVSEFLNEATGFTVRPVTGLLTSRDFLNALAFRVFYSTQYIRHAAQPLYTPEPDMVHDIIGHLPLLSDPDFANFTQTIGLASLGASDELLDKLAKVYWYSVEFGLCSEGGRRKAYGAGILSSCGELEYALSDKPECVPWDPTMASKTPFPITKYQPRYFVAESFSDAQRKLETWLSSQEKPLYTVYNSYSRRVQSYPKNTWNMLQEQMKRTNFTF
UniProt A4HTA0: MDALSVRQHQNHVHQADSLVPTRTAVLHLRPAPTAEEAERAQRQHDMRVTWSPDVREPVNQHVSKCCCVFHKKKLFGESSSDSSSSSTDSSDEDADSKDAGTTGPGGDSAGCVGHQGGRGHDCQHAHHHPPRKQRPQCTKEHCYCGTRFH
UniProt A4HSP2: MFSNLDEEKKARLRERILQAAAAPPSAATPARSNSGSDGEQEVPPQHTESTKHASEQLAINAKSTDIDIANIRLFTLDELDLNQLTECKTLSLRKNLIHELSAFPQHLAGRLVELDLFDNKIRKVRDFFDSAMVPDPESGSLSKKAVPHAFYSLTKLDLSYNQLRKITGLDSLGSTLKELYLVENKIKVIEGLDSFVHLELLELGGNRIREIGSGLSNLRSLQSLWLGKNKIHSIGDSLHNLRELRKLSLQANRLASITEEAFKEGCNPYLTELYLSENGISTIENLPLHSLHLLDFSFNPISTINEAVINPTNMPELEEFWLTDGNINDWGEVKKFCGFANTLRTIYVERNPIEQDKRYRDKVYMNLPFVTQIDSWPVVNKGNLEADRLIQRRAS
UniProt A4I7K1: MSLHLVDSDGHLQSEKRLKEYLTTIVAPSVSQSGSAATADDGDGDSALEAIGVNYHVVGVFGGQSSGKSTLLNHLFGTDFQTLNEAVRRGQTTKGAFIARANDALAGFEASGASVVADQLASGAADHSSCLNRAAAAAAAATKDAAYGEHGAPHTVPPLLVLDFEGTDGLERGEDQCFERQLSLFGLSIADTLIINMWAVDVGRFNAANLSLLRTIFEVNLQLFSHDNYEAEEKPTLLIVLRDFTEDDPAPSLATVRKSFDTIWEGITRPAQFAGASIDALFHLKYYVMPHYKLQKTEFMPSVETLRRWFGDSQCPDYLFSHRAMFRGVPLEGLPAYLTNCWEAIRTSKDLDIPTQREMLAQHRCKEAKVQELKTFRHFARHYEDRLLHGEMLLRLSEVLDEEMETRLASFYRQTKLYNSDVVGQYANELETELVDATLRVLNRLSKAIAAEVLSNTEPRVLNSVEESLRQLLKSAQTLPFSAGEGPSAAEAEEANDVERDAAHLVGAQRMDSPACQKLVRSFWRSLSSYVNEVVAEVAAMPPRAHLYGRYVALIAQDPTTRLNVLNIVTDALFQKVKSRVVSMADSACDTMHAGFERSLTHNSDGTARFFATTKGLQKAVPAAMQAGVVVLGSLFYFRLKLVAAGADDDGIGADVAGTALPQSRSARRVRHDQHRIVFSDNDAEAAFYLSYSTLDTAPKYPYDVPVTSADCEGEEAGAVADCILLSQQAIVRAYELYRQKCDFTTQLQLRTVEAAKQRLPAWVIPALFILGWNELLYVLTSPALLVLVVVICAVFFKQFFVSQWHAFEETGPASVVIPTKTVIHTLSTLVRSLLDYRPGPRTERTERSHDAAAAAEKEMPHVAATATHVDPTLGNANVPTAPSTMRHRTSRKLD
UniProt A4HXS0: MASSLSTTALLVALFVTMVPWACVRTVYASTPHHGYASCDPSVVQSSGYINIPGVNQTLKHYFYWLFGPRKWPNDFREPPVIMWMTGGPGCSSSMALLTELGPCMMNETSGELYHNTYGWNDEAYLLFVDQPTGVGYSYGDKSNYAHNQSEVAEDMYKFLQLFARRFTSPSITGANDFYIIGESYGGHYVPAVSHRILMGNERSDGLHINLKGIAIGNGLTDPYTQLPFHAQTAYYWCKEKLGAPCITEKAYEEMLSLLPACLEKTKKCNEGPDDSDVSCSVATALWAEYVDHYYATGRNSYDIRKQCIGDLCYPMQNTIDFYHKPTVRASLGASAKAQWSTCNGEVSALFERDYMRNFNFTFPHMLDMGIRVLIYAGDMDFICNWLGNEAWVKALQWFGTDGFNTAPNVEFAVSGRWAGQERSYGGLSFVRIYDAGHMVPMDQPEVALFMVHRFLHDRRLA
UniProt A4HXA8: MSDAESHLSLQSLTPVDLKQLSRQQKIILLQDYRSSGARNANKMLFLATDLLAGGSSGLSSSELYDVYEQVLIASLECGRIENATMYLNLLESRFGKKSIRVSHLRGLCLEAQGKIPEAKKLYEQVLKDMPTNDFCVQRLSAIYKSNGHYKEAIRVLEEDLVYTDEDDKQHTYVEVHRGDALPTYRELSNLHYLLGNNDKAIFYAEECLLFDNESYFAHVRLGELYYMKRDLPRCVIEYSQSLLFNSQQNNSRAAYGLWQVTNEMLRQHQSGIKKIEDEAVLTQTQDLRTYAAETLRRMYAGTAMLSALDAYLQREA
UniProt E9AH65: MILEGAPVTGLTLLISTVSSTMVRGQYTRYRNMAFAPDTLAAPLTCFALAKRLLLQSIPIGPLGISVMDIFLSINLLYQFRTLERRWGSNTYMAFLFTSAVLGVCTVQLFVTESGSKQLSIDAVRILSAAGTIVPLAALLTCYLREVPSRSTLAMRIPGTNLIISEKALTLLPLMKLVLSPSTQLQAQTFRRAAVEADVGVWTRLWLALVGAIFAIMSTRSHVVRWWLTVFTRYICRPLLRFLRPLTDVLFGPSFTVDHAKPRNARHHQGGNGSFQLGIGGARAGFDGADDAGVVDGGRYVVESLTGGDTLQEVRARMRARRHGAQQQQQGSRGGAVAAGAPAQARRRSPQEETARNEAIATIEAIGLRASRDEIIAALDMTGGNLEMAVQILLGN

What was measured:
Assay in all cases: affinity purification with mass spectrometry; lysates of L. infantum promastigotes expressing C- or N-terminally HA-tagged Lip47, LiUFD1, LiFAF2 or LiPUB1 on anti-HA magnetic beads; LC-MS/MS; two independent experiments for each cofactor, filtered against five unrelated HA-tagged proteins
[1] = molecular target: HA-tagged LiFAF2 (Leishmania infantum) (UniProt A4IB95)
[2] = molecular target: HA-tagged LiPUB1 (Leishmania infantum) (UniProt A4HU22)
[3] = molecular target: HA-tagged Lip47 (Leishmania infantum) (UniProt A4HZR0)
[4] = molecular target: HA-tagged LiUFD1 (Leishmania infantum) (UniProt A4ICA6)

| binding [1] | binding [2] | binding [3] | binding [4] | Molecule |
| --- | --- | --- | --- | --- |
| binds | binds |  |  | 40S ribosomal protein S33, putative (LinJ.26.1610) (from UniProt Q9N9V5) |
| binds |  | binds |  | ADF (actin depolymerization factor)/Cofilin (LinJ.29.0520) (from UniProt A4I4A3) |
|  |  |  | binds | LiFAF2, endogenous (from UniProt A4IB95) |
|  |  | binds |  | LiPUB1, endogenous (from UniProt A4HU22) |
|  | binds | no binding |  | LiUFD1, endogenous (from UniProt A4ICA6) |
|  |  |  | no binding | Lip47, endogenous (from UniProt A4HZR0) |
| binds |  |  |  | PEX10, PEX2 / PEX12 amino terminal region/ RING/U-box containing protein (LinJ.25.2400) (from UniProt A4I1S9) |
| binds | binds | binds |  | TPPP/p25-alpha, putative (Tubulin Polymerization-Promoting Protein) (LinJ.34.1620) (from UniProt A4I9W4) |
| binds |  | binds | binds | V-type proton ATPase subunit D, putative (LinJ.05.1140) (from UniProt A4HSN6) |
| binds |  |  |  | cell differentiation protein-like protein (Rcd1 homolog) (LinJ.34.4180) (from UniProt A4IAK7) |
| binds | binds |  | binds | mitochondrial import receptor subunit ATOM40, putative (LinJ.35.4920) (from UniProt A4IC22) |
|  |  |  | binds | peroxin 12 (PEX12), putative (RING/U-box) (LinJ.19.1240) (from UniProt A4HYE3) |
| binds |  |  |  | peroxisomal biogenesis factor 11 (PEX11), putative (LinJ.35.3740) (from UniProt A4IBQ8) |
|  |  |  | binds | phenylalanine-4-hydroxylase (signal peptide) (LinJ.28.1390) (from UniProt A4I3K7) (enzyme) |
|  |  | binds |  | protein phosphatase inhibitor (Ypi1, PP1 Protein phosphatase inhibitor) (LinJ.07.0840) (from UniProt A4HTA0) |
|  |  | binds |  | protein phosphatase type 1 (PP1) regulator-like protein (SDS22) (LinJ.05.1200) (from UniProt A4HSP2) |
| binds | binds | binds |  | root hair defective 3 GTP-binding protein (RHD3), putative (LinJ.32.0380) (from UniProt A4I7K1) |
|  |  |  | binds | serine carboxypeptidase (CBP1)-putative (mitochondrial, 1 TM) (LinJ.18.0450) (from UniProt A4HXS0) (enzyme) |
| binds |  |  | binds | stomatin-like protein 2 (SLP-2, mitochondrial) (LinJ.05.1040) (from UniProt A4HSM6) |
| binds |  |  |  | tetratricopeptide repeat, putative (ER membrane protein complex subunit 2) (LinJ.17.0230) (from UniProt A4HXA8) |
| binds |  |  | binds | ubiquitin associated UBA/TS-N domain protein (LinJ.24.1650) (from UniProt E9AH65) |
|  |  |  | binds | hypothetical protein-conserved (alkaline phosphatase like superfamily, 1 TM) LinJ.12.0550 (protein, UniProt E9AGE7 1-518) MFGESYVESGAPNAARGGGHYTTTRIESPALRAAGASSSGANGQQQHLRSVKEIIKTLDEEHEISGPKGGCCSRIFVPFLTLAMIIVIFVAIVYTNGTGSDVEASPRVAMIVLEGFSGTVFHALMQSGVHMPNIAHMLSSQKGVWAECATSSQSSCARAVVVENDTSGEVYVSAAAAMTSLFSGVSPREHQVYNGSLESMSMYANTSKMNPSIAKRVKDAGMKVSVVGTSHAINSLSIAFGSCSQPGVLDMECAASREELLRASIDEYSSSVQLDCLASSSCNMDTRKMNSPTDPKQCSSGQAEAQFTRHLNSIFGGLAYSTQTQEAAVQNTAADNLDDSLFVFHFDSLAVRAASTYLPGFQYNVSSKEYVAQVYLLDALVGQVISYVRDRARSQKENWLILGVSDHGGNDKPHAIPNPVSTSENTIAFFMATYTDNLKRFVTLAPLQRPVTQLDVLPTVLTWLNVAPFDAETSAVIAGKNTTAASPAVEARVMERRHFEGLVQGICSSGTSLKDCAV |

No constants are given. Whether binding was seen depends on the method and setting. Binding seen in cells or lysates may run through a third protein. These calls come from enrichment with a bait or labelling near it, and not all partners need be listed. For some assays here: No binding means not detected with the bait.
